# The list shows a part of the results.
# B1: LERP (Drosophila melanogaster), B7Z0Q8 (protein)
# chain: MRCSLQKDCAAPTQENFRQMRFPIVISLLLLLFCSGESVAADAANQLKFSTTECKLKEPIYGSTFDFSGLHSDLAHVVKSMNIGGDQFEFNICGNLSRTCNGESNVAACLKRQGKEYILGRQHELFYNNGNMFLKYKSGAKCDNGTADKPNYQLHVMFSCDYTLDAQPMHVTPYANEVCSFYISYRTPLACLSIPEGLQSNSCRVGDTKSNGTFDLMPLSDSNYHTSNRQGAFFVINVCKPVLYGENSMCPAGSSVCLFDSKATNPKERFINFGNVQTHPVVEKGQLLLRHESPTPCAKNSSANYTSVIYFSCDKFIRNAHPEFAGLGADSCTYQFNFATPLACNDLKPCTAFTSTNELLDLSSLSSKPARTLLKDGKNYTIAVCAHAGAPCQENGGACYEQNSTTISLGNSNSQLRFNQTGSLYLLYEDGAECSTATGMRRWSTKIEFVCANNATKDNGASTAGGSDSLKIIEDSNCQLLIQYQTPLACREPIRCKATTYVDHTNDGLGSSGDELIDLTPLISATDNYEARVELPASMEHLVPKTTKFFLNVCRPLVPKYQLGCAGGSAACMAKVTAAGAPEEERSMGFPLVSLTQRNRTFAELAYLKGDPCPTDNTSELSTHILFNCNMRAGRGQPVLRSVEDCAYRFEWETNVFCPPHECTFSADTCDLVHDELGRRFNFKSAPFTKDGKIEIDYNATKMSVNICGAHRKAMTDYSQALVNIFFTHESPNCGREGTMNVQIRLICSDQTESSSTISSDQQCNLLYVQRTPSICEFLSLGATQQNFESNGSTSSSTSSSSTSTTTSTTTQASPAGKPTKAATSTTTTTVGPDPAATPIGPTASVGTILGAILSVTFCVTCLGLLAFSPARRQRIRRLFRRSNSAVRYSRVQSNEEANLLLEPNGEFTESDDDMLL
# Legend:
# Experiment in all cases: glycan array binding signal (z-score within array); higher = stronger binding
# Settings in all cases: glycan notation: IUPAC condensed, linker removed
# [1] = molecular target: Gal(b1-3)GalNAc(a1-3)[Fuc(a1-2)]Gal(b1-4)GlcNAc
# In short: (§1)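 The binding signal is a Z-score computed within each array. Data were drawn from 3228 arrays in the Consortium for Functional Glycomics database, restricted to those with a known protein sequence. Scores were averaged over arrays of the same protein sequence at different concentrations or buffers, and over linkers, and negative values can be taken as non-binding.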
# [2] = molecular target: Gal(b1-3)GalNAc(b1-3)Gal(a1-4)Gal(b1-4)Glc
# In short: as §1
# [3] = molecular target: Gal(b1-3)GalNAc(b1-4)Gal(b1-4)Glc
# In short: as §1
# [4] = molecular target: Gal(b1-3)GalNAc(b1-4)[Neu5Ac(a2-3)]Gal(b1-4)Glc
# In short: as §1
# [5] = molecular target: Gal(b1-3)GlcNAc
# In short: as §1
# [6] = molecular target: Gal(b1-3)GlcNAc(a1-6)Gal(b1-4)GlcNAc
# In short: as §1
# [7] = molecular target: Gal(b1-3)GlcNAc(b1-2)Man(a1-3)[Gal(b1-3)GlcNAc(b1-2)Man(a1-6)]Man(b1-4)GlcNAc(b1-4)GlcNAc
# In short: as §1
# [8] = molecular target: Gal(b1-3)GlcNAc(b1-2)Man(a1-3)[Gal(b1-3)GlcNAc(b1-2)Man(a1-6)]Man(b1-4)GlcNAc(b1-4)[Fuc(a1-6)]GlcNAc
# In short: as §1
# [9] = molecular target: Gal(b1-3)GlcNAc(b1-3)Gal(b1-3)GlcNAc
# In short: as §1
# [10] = molecular target: Gal(b1-3)GlcNAc(b1-3)Gal(b1-4)Glc
# In short: as §1
# [11] = molecular target: Gal(b1-3)GlcNAc(b1-3)Gal(b1-4)GlcNAc
# In short: as §1
# [12] = molecular target: Gal(b1-3)GlcNAc(b1-3)Gal(b1-4)GlcNAc(b1-6)[Gal(b1-3)GlcNAc(b1-3)]Gal(b1-4)Glc
# In short: as §1
# [13] = molecular target: Gal(b1-3)GlcNAc(b1-3)Gal(b1-4)[Fuc(a1-3)]GlcNAc(b1-6)[Gal(b1-3)GlcNAc(b1-3)]Gal(b1-4)Glc
# In short: as §1
# [14] = molecular target: Gal(b1-3)GlcNAc(b1-3)GalNAc
# In short: as §1
# [15] = molecular target: Gal(b1-3)GlcNAc(b1-6)Gal(b1-4)GlcNAc
# In short: as §1
# [16] = molecular target: Gal(b1-3)[Fuc(a1-4)]GlcNAc
# In short: as §1
# [17] = molecular target: Gal(b1-3)[Fuc(a1-4)]GlcNAc(b1-2)Man(a1-3)[Gal(b1-3)[Fuc(a1-4)]GlcNAc(b1-2)Man(a1-6)]Man(b1-4)GlcNAc(b1-4)GlcNAc
# In short: as §1
# [18] = molecular target: Gal(b1-3)[Fuc(a1-4)]GlcNAc(b1-2)Man(a1-3)[Gal(b1-3)[Fuc(a1-4)]GlcNAc(b1-2)Man(a1-6)]Man(b1-4)GlcNAc(b1-4)[Fuc(a1-6)]GlcNAc
# In short: as §1
# [19] = molecular target: Gal(b1-3)[Fuc(a1-4)]GlcNAc(b1-3)Gal(b1-3)[Fuc(a1-4)]GlcNAc
# In short: as §1
# [20] = molecular target: Gal(b1-3)[Fuc(a1-4)]GlcNAc(b1-3)Gal(b1-4)GlcNAc
# In short: as §1
# [21] = molecular target: Gal(b1-3)[Fuc(a1-4)]GlcNAc(b1-3)Gal(b1-4)[Fuc(a1-3)]GlcNAc
# In short: as §1
# [22] = molecular target: Gal(b1-3)[GlcNAc(b1-6)]GalNAc
# In short: as §1
# [23] = molecular target: Gal(b1-3)[Neu5Ac(a2-6)]GalNAc
# In short: as §1
# [24] = molecular target: Gal(b1-3)[Neu5Ac(a2-6)]GlcNAc(b1-6)Gal(b1-4)Glc
# In short: as §1
# [25] = molecular target: Gal(b1-3)[Neu5Ac(b2-6)]GalNAc
# In short: as §1
# [26] = molecular target: Gal(b1-4)GalNAc(a1-3)[Fuc(a1-2)]Gal(b1-4)GlcNAc
# In short: as §1
# [27] = molecular target: Gal(b1-4)GalNAc(b1-3)[Fuc(a1-2)]Gal(b1-4)GlcNAc
# In short: as §1
# [28] = molecular target: Gal(b1-4)Glc
# In short: as §1
# [29] = molecular target: Gal(b1-4)Glc6S
# In short: as §1
# [30] = molecular target: Gal(b1-4)GlcNAc
# In short: as §1
binder,measurement,setting,value
B1,glycan array binding signal (z-score),[1],0.279
same,glycan array binding signal (z-score),[2],-0.989
same,glycan array binding signal (z-score),[3],-0.354
same,glycan array binding signal (z-score),[4],-0.302
same,glycan array binding signal (z-score),[5],0.159
same,glycan array binding signal (z-score),[6],-1.13
same,glycan array binding signal (z-score),[7],-1.3
same,glycan array binding signal (z-score),[8],0.938
same,glycan array binding signal (z-score),[9],-0.572
same,glycan array binding signal (z-score),[10],0.732
same,glycan array binding signal (z-score),[11],-0.404
same,glycan array binding signal (z-score),[12],0.223
same,glycan array binding signal (z-score),[13],-0.58
same,glycan array binding signal (z-score),[14],-0.333
same,glycan array binding signal (z-score),[15],-0.449
same,glycan array binding signal (z-score),[16],0.487
same,glycan array binding signal (z-score),[17],1.6
same,glycan array binding signal (z-score),[18],5.88
same,glycan array binding signal (z-score),[19],1.56
same,glycan array binding signal (z-score),[20],0.429
same,glycan array binding signal (z-score),[21],-0.847
same,glycan array binding signal (z-score),[22],-0.465
same,glycan array binding signal (z-score),[23],-0.837
same,glycan array binding signal (z-score),[24],0.244
same,glycan array binding signal (z-score),[25],-0.153
same,glycan array binding signal (z-score),[26],0.664
same,glycan array binding signal (z-score),[27],1.48
same,glycan array binding signal (z-score),[28],0.771
same,glycan array binding signal (z-score),[29],-0.389
same,glycan array binding signal (z-score),[30],0.272

# A portion taken from the entries so far, as a working copy:
binder,measurement,setting,value
B1,glycan array binding signal (z-score),[4],-0.302
same,glycan array binding signal (z-score),[5],0.159
